The results in this text go back to publication PMC8689486.

The chains behind the UniProt entries cited, without tags or fusion partners.
UniProt Q7SIG6: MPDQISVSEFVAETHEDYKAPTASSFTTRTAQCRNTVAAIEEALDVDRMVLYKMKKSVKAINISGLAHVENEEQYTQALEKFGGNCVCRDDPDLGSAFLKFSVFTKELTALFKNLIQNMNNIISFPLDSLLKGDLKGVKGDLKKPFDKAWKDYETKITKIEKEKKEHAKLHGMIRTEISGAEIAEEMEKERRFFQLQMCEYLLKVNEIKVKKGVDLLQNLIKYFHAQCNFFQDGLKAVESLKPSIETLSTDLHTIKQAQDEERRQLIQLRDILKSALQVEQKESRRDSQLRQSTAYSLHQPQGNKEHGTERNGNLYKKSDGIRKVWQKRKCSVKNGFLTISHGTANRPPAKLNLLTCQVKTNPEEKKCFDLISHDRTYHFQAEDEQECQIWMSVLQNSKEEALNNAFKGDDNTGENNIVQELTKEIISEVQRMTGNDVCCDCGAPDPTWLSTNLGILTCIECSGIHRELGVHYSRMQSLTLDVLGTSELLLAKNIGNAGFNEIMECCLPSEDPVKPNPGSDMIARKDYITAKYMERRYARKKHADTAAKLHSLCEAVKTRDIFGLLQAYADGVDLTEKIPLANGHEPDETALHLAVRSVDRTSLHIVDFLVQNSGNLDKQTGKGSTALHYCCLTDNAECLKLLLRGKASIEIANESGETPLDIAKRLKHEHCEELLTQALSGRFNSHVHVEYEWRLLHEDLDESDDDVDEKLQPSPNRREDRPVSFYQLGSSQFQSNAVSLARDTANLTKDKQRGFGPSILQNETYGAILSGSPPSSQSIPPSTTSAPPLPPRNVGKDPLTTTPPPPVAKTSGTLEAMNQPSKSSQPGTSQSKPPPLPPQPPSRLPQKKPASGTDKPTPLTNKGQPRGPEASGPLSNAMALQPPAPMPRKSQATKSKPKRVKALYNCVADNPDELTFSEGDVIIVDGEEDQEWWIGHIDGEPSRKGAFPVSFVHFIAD

Like-named read-outs stand apart in the source and are kept apart here. These are yes or no findings as the source states them, for the method shown. In cells and extracts the contact can be indirect. These calls come from enrichment with a bait or labelling near it, and not all partners need be listed. No binding means not detected with the bait. For some of these results: Sequences can lack the tags named with a protein.

In experiment [1] the target is T1, ADP-ribosylation factor-like protein 15 (ARL15) (mouse (endogenous in mouse brain, iWAT and 3T3-L1)) (UniProt Q8BGR6).
T1 sequence: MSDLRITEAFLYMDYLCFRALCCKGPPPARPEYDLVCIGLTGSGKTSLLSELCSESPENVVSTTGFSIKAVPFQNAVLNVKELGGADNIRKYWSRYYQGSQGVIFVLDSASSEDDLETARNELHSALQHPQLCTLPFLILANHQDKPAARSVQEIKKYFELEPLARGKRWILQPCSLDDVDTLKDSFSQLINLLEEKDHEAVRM
The experiment can be described thus: affinity purification with mass spectrometry; immunoprecipitation with anti-ARL15 antibody and Protein G Sepharose from WT mouse brain lysate (control: homozygous Arl15 knockout brain), WT iWAT lysate and 3T3-L1 lysates at D-3, D0 and D4 (control: IgG); lysis buffer with 5 mM MgCl2; whole precipitates analysed by mass spectrometry.

Experiment [2] deals with T1, ADP-ribosylation factor-like protein 15 (ARL15) (mouse (endogenous in mouse brain, iWAT and 3T3-L1)). The experiment is described as above. The source holds these as a separate data set.

Consider “ArfGAP protein containing a SH3 Domain, Ankyrin Repeat And PH Domain 2 (ASAP2) (from UniProt Q7SIG6 1-958)”, for which, in experiment [1], the binding result is given as “no binding”.

B1: ADP Ribosylation Factor like GTPase 6 Interacting Protein 5 (ARL6IP5) (protein, UniProt Q8R5J9 1-188)
chain: MDVNLAPLRAWDDFFPGSDRFARPDFRDISKWNNRVVSNLLYYQTNYLVVAAMMISVVGFLSPFNMILGGVIVVLVFMGFVWAAHNKDILRRMKKQYPTAFVMVVMLASYFLISMFGGVMVFVFGITLPLLLMFIHASLRLRNLKNKLENKMEGIGLKKTPMGIILDALEQQEDNINKFADYISKARE
On to B1, for which the binding entry in experiment [2] was “binds”.

B2: glucose transporter type 4 (GLUT4) (protein, UniProt P14142 1-509)
chain: MPSGFQQIGSDDGEPPRQRVTGTLVLAVFSAVLGSLQFGYNIGVINAPQKVIEQSYNATWLGRQGPGGPDSIPQGTLTTLWALSVAIFSVGGMISSFLIGIISQWLGRKRAMLANNVLAVLGGALMGLANAAASYEILILGRFLIGAYSGLTSGLVPMYVGEIAPTHLRGALGTLNQLAIVIGILVAQVLGLESMLGTATLWPLLLALTVLPALLQLILLPFCPESPRYLYIIRNLEGPARKSLKRLTGWADVSDALAELKDEKRKLERERPMSLLQLLGSRTHRQPLIIAVVLQLSQQLSGINAVFYYSTSIFESAGVGQPAYATIGAGVVNTVFTLVSVLLVERAGRRTLHLLGLAGMCGCAILMTVALLLLERVPAMSYVSIVAIFGFVAFFEIGPGPIPWFIVAELFSQGPRPAAMAVAGFSNWTCNFIVGMGFQYVADAMGPYVFLLFAVLLLGFFIFTFLKVPETRGRTFDQISAAFRRTPSLLEQEVKPSTELEYLGPDEND
For B2, the binding entry in experiment [2] is “no binding”.

B3: adiponectin (protein, UniProt Q60994 18-247)
chain: EDDVTTTEELAPALVPPPKGTCAGWMAGIPGHPGHNGTPGRDGRDGTPGEKGEKGDAGLLGPKGETGDVGMTGAEGPRGFPGTPGRKGEPGEAAYVYRSAFSVGLETRVTVPNVPIRFTKIFYNQQNHYDGSTGKFYCNIPGLYYFSYHITVYMKDVKVSLFKKDKAVLFTYDQYQEKNVDQASGSVLLHLEVGDQVWLQVYGDGDHNGLYADNVNDSTFTGFLLYHDTN
Turning to B3, the binding result in experiment [2] is on record as “no binding”.
